Reference: paper PMC12445503, “Sclareol and cinnarizine are non-selective inhibitors of voltage-gated Cav1.3 L-type Ca^2+ channels” (Channels, 2025)

Protein sequences, listed by entry. Tags and fused reporters are not part of them.
UniProt Q01668, whole entry: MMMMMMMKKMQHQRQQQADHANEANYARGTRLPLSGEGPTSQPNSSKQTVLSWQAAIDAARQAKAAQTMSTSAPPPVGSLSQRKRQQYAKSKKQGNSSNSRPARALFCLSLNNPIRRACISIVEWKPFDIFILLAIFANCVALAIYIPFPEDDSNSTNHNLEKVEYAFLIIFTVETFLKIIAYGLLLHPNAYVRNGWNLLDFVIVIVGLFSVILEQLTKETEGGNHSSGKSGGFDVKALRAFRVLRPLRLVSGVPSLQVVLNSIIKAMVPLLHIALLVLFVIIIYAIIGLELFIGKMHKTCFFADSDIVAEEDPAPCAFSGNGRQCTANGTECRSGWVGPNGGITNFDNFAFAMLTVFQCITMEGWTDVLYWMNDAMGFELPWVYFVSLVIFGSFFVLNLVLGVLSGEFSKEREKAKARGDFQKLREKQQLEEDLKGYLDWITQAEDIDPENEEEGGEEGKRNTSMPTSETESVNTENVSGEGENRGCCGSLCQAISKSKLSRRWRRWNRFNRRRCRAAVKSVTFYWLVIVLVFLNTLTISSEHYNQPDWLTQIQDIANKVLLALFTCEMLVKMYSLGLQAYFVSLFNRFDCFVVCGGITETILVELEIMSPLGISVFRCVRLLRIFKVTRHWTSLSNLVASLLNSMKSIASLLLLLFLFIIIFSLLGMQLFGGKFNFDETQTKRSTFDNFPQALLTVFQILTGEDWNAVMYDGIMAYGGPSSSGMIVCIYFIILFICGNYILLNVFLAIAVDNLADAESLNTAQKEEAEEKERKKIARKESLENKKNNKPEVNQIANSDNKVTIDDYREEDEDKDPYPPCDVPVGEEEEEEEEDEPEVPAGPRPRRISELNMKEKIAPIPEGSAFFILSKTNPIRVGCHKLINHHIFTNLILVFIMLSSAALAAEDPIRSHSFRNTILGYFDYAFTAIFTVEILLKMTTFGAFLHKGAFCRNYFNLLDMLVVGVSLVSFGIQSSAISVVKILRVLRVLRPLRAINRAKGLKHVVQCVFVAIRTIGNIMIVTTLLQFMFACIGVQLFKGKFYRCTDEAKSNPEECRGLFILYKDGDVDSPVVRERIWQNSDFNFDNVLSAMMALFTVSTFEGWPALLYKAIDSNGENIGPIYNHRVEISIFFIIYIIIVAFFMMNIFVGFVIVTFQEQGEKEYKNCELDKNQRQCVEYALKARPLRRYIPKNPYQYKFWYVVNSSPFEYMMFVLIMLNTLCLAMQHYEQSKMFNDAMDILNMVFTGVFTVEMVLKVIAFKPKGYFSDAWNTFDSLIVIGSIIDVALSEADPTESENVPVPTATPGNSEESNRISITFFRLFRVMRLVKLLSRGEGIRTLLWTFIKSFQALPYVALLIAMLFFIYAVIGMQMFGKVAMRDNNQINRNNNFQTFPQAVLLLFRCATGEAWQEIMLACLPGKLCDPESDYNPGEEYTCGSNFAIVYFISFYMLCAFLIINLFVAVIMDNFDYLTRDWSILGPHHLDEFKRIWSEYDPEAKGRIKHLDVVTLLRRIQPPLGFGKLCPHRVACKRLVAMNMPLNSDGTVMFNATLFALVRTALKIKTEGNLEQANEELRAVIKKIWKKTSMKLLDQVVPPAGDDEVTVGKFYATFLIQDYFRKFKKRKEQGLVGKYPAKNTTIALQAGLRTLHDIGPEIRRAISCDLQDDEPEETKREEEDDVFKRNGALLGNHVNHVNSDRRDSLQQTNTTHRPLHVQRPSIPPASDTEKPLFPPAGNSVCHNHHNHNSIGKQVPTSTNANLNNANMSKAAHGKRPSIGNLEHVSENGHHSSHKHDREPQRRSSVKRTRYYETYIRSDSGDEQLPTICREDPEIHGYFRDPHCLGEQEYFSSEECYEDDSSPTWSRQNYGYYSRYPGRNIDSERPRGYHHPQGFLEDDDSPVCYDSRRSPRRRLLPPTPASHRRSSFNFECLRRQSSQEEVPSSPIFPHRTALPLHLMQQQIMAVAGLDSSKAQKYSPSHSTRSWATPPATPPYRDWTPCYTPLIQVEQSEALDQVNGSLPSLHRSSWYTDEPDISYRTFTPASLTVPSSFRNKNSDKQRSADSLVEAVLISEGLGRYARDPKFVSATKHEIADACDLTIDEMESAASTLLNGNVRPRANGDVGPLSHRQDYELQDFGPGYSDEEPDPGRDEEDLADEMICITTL
UniProt Q13936, whole entry: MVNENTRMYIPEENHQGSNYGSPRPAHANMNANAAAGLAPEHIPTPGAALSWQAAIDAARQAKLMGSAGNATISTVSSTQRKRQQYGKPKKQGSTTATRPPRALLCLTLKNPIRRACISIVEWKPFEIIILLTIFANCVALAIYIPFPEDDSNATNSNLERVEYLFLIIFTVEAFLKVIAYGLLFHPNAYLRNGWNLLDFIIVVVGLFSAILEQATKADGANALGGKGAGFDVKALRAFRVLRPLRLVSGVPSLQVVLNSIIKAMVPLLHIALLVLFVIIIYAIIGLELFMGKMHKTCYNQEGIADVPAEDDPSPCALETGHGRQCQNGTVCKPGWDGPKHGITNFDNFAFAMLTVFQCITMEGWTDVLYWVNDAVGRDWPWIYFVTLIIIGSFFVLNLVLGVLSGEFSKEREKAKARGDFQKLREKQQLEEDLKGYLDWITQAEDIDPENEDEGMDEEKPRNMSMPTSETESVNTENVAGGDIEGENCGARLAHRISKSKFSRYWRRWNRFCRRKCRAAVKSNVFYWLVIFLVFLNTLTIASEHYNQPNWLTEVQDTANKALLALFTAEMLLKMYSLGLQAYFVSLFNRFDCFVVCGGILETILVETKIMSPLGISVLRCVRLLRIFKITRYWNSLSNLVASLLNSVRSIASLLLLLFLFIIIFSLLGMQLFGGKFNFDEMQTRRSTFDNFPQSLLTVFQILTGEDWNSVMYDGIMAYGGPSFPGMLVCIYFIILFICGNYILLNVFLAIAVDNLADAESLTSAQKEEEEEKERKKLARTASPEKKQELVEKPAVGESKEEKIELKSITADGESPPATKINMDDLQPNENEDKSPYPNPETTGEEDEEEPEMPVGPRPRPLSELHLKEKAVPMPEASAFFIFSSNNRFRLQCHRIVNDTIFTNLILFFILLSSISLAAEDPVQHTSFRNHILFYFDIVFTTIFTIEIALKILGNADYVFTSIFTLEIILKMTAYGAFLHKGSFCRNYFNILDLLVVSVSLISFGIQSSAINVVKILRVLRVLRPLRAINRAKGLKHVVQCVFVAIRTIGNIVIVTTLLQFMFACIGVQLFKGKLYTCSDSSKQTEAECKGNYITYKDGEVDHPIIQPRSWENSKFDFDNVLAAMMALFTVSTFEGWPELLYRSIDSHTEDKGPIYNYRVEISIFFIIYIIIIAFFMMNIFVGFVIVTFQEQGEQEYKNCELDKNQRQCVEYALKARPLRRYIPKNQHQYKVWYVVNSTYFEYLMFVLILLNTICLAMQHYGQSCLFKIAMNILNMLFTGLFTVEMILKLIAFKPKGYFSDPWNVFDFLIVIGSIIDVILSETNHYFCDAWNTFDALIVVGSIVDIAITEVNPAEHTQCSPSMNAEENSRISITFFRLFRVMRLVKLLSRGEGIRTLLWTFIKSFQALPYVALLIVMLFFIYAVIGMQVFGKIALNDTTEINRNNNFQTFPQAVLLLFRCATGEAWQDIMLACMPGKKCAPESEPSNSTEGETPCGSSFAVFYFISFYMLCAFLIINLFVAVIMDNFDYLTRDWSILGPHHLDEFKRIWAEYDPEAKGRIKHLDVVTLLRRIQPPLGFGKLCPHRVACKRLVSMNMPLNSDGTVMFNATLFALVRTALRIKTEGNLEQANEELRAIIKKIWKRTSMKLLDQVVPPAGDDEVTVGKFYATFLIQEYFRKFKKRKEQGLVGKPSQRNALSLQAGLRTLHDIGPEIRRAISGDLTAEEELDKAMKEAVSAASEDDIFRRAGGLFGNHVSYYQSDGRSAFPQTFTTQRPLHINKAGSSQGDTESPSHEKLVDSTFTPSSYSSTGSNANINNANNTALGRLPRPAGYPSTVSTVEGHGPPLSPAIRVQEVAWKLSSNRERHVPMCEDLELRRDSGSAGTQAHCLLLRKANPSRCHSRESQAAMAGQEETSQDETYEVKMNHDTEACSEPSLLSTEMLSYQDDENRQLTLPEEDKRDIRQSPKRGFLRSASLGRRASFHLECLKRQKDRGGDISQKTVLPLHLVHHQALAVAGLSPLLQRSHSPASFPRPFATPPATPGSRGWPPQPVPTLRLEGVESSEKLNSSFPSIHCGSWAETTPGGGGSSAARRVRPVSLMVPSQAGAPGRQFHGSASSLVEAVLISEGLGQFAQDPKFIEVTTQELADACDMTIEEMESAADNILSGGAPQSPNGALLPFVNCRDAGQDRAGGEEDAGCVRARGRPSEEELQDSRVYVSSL

Tests used:
[1] = target: Cav1.3 (Homo sapiens, UniProt Q01668); assay: cell-based; set-up: gene CACNA1D; conditions: read-out: % remaining current at 3 μM (1 Hz)
[2] = target: Cav1.2 (Homo sapiens, UniProt Q13936); assay: cell-based; set-up: gene CACNA1C; conditions: read-out: % remaining current at 3 μM (1 Hz)

C(=C\c1ccccc1)/CN1CCN(C(c2ccccc2)c2ccccc2)CC1 [cinnarizine]
remaining activity at 3 µM [1]: 16.8 ± 3.9% | remaining activity at 3 µM [2]: 35.6 ± 12.4%
